Laboratory results taken from article PMC10746161.
No constants are given. Whether binding was seen depends on the method and setting. A result given as binding can be weak or reduced; the word gives no strength. Where a sequence is shown, tags or fusion partners need not be part of it.

B1: MltF C-terminal catalytic domain (CTD, aa 269-490) fused to the N-terminus of Cya-T18 (domain or fragment, UniProt Q9HXN1 269-490)
chain: VDVLGYVGAYTFAQHLQQRLPRYESHFKQSGKQLDTDWRLLAAIGYQESLWQPGATSKTGVRGLMMLTNRTAQAMGVSNRLDPKQSIQGGSKYFVQIRSELPESIKEPDRSWFALAAYNIGGAHLEDARKMAEKEGLNPNKWLDVKKMLPRLAQKQWYAKTRYGYARGGETVHFVQNVRRYYDILTWVTQPQMEGSQIAESGLHLPGVNKTRPEEDSGDEKL
B2: RlpA (PA4000) fused to the N-terminus of Cya-T18 (enzyme, UniProt Q9X6V6 27-342)
chain: CSSKAPQQPARQAGISGPGDYSRPHRDGAPWWDVDVSRIPDAVPMPHNGSVKANPYTVLGKTYYPMNDARAYRMVGTASWYGTKFHGQATANGETYDLYGMTAAHKTLPLPSYVRVTNLDNGKSVIVRVNDRGPFYSDRVIDLSFAAAKKLGYAETGTARVKVEGIDPVQWWAQRGRPAPMVLAQPKQAVAQAAPAAAQTQAVAMAQPIETYTPPPAQHAAAVLPVQIDSKKNASLPADGLYLQVGAFANPDAAELLKAKLSGVTAAPVFISSVVRNQQILHRVRLGPIGSADEVSRTQDSIRVANLGQPTLVRPD

Target: PA3978 fused to the C-terminus of Cya-T25 (P. aeruginosa)
Assay: two-hybrid; bacterial two-hybrid (BACTH), Cya-T25 and Cya-T18 fusions in E. coli BTH101 (∆cya), MacConkey-maltose agar, 30°C

Binder | binding
B1 | binds
B2 | no binding
